The values that follow come from patent publication US5612455, “Nuclear factors and binding assay” (Tularik, Inc.).

The comparison behind a weaker result is the experiment's own reference, which may not be listed here. For some of these results: Tags and fusion partners may be left off the protein sequences shown.

Holding throughout (assay): EMSA
Background: In EMSA bound probe runs differently from free probe, usually more slowly.

Data set [1] has as its system c-Jun/Fra-1 heterodimer (AP-1). Conditions: AP-1 alone binds relatively weakly; exact EMSA probe not stated; purified recombinant protein; protein details: E. coli, Fra-1 from pET11.
Data set [2] addresses T1, NFATp rel domain (353 aa, homologous to murine NFATp 185-537) (Homo sapiens) (UniProt Q13469).
T1 sequence (limits assumed): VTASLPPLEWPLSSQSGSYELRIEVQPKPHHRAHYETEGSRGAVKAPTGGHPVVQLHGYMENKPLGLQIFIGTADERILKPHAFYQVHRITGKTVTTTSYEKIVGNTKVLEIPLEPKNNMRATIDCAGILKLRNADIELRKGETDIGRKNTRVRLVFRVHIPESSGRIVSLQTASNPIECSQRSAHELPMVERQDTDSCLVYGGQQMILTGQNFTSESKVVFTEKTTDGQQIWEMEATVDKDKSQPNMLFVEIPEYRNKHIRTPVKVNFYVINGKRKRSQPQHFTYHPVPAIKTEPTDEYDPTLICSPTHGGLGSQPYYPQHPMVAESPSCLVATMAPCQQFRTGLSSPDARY
Conditions: weaker than IL-4 site; highest relative affinity of the four NFATs; core only printed; purified recombinant protein.

Data set [3] deals with T2, NFATc rel domain (NFATc-309) (Homo sapiens) (UniProt O95644).
T2 sequence: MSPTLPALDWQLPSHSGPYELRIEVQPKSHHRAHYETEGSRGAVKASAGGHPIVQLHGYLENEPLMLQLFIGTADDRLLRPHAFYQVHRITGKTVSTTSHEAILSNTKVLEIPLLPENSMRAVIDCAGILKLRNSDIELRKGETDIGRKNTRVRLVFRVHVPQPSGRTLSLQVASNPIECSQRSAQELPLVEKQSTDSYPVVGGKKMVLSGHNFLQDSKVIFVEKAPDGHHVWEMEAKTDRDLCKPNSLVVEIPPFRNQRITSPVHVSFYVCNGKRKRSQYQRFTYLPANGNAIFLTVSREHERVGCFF
The conditions noted are these: weak binding; core only printed; purified recombinant protein.

For data set [4], the target named is T3, NFAT3 rel domain (Homo sapiens) (UniProt Q14934).
T3 sequence: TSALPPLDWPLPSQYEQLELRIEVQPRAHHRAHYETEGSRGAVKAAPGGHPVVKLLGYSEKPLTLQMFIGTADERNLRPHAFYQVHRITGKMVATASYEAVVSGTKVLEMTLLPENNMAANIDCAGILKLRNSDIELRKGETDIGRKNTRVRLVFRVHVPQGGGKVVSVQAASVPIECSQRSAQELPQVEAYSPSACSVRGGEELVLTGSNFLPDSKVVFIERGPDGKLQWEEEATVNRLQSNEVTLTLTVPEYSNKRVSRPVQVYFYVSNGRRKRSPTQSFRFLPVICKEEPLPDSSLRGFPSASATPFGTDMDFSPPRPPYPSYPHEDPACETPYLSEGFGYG
The conditions noted are these: weak binding; core only printed; purified recombinant protein.

Turning to “GGAGGAAAAACTGTTTCATACAGAAGGCGT (double strand) [IL-2 NFAT/AP-1 composite element]”, the binding result in data set [1] was “binds more weakly”.

“GGAAAAACTG (double strand) [IL-2 promoter NFAT site (distal antigen response element)]”: the binding result in data set [2], in data set [3] and in data set [4] was “binds more weakly” in each case.
